Reference: patent publication US20180119150A1
Results are given in words; binding and its absence hold for the method and conditions named. In cells and extracts the contact can be indirect. Some entries that bind do so weakly or less than the wild type.

Amino acid sequences for entries named in this document (tags omitted).
UniProt Q8NFU7: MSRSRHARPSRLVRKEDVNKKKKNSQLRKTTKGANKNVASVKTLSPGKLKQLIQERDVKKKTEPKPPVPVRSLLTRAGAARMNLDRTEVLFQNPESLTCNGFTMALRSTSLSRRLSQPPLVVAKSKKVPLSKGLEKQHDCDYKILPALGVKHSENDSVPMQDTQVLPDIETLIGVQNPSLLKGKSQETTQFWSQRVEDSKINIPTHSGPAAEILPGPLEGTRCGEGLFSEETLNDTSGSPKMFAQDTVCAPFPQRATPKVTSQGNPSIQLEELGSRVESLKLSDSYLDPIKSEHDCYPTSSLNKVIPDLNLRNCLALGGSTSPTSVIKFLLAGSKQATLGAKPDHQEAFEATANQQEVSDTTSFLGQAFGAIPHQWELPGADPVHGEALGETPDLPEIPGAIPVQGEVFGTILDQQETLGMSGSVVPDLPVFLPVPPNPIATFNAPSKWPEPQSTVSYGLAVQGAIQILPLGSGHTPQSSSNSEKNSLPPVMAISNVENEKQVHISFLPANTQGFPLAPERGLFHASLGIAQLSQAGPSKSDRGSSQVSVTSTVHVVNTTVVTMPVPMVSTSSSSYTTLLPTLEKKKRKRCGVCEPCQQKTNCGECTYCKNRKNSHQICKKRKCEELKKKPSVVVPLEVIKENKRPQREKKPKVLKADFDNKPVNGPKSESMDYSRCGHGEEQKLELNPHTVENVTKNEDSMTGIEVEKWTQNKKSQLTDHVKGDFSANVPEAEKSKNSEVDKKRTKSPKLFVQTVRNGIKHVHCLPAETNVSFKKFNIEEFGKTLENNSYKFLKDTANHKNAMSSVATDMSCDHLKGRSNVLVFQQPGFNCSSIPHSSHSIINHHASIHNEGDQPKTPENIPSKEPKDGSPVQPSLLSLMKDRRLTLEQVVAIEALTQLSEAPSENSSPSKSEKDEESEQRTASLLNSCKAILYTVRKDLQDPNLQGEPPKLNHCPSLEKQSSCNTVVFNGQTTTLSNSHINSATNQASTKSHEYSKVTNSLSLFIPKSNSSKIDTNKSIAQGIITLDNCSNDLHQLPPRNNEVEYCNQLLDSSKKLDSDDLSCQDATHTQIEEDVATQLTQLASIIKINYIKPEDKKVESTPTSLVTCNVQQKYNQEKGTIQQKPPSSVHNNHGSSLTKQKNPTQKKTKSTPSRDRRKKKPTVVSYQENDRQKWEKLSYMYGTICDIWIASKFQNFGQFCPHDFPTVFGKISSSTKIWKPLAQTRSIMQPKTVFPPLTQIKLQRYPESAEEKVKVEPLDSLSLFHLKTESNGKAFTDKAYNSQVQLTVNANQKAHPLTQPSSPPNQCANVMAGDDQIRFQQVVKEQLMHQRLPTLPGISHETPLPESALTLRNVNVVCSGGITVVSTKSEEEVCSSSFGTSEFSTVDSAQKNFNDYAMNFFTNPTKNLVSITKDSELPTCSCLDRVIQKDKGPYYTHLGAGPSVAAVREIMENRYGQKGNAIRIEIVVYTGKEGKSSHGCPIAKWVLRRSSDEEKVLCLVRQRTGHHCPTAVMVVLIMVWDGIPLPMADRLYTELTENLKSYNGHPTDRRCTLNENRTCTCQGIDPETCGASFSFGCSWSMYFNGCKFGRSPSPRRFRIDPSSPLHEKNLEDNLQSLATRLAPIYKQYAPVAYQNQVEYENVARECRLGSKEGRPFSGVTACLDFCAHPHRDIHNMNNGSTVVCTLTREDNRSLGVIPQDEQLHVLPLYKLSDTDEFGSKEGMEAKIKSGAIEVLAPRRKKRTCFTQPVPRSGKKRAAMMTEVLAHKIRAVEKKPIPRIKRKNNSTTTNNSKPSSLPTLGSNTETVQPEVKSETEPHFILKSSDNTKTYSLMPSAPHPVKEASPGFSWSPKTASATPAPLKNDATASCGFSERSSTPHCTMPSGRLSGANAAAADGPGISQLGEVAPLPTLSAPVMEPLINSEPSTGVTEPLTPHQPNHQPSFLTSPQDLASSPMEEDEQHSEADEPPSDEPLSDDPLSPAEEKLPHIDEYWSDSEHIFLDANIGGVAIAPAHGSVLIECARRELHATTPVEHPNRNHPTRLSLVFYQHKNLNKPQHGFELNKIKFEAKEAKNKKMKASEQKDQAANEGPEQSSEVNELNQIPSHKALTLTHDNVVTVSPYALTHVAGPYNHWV
UniProt Q99684: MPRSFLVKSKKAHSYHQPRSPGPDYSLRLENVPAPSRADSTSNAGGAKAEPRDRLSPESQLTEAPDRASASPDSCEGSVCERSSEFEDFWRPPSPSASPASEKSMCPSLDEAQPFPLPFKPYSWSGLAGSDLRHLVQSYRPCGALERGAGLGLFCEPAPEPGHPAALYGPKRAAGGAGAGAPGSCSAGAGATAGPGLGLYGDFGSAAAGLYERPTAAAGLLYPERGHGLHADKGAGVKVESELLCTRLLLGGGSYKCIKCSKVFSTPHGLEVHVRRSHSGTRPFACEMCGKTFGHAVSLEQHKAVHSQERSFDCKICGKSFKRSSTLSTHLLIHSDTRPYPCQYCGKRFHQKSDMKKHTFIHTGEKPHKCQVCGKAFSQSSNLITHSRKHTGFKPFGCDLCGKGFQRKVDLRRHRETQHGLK

Columns and labels:
[1] = biological target: TET1 (UniProt Q8NFU7); assay: co-immunoprecipitation from THP1 cells, Western blot
[2] = biological target: TET1 (UniProt Q8NFU7); assay: co-immunoprecipitation from HEK293T cells, Western blot
[3] = biological target: TET1 (UniProt Q8NFU7); assay: co-immunoprecipitation with anti-GFI1 antibody, Western blot

Measured: binding

GFI1 (from UniProt Q99684 1-422)
binds: all assays above
